# Test results published in PubChem BioAssay (NCATS).
# This is one part of the list. These are further read-outs of the screen, such as a control signal, another cell line or another target. No call is given for them. The list favours compounds with an active or inconclusive main result. For some assays here: Words in brackets tell the shape of the fitted curve; partial curves, single points and poor fits give uncertain potencies.
# Experiments:
# [1] = qHTS assay for small molecule antagonists of vitamin D receptor signaling (AID 588541); conditions: HEK293T VDR-UAS-bla, beta-lactamase ratio, antagonist mode; measured here: W460 blue channel (cell viability)
# [2] = qHTS assay for small molecule antagonists of peroxisome proliferator-activated receptor gamma signaling (AID 588537); conditions: HEK293 PPARg-UAS-bla, beta-lactamase ratio, antagonist mode; measured here: W460 blue channel
# Summary of the method: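 Inhibitors of agonist-stimulated UAS-bla reporter activity were sought in HEK293 cells; rosiglitazone (50 nM) defined full signal and DMSO baseline. Curves fitted to Hill model gave IC50 and efficacy.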
# [3] = qHTS assay for small molecule agonists of retinoid X receptor alpha signaling (AID 588544); conditions: HEK293T RXRa-UAS-bla, beta-lactamase reporter, 18 h; 530 nm emission
# [4] = qHTS assay for small molecule antagonists of retinoid X receptor alpha signaling (AID 588546); conditions: HEK293T RXRa-UAS-bla, beta-lactamase ratio, antagonist mode; measured here: W530 green channel, cytotoxicity proxy;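 further: cells stimulated with 9-cis-retinoic acid as agonist; on the % scale 0 is the no-effect control and ±100 the full control effect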
# Summary of the method: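 Beta-lactamase reporter inhibition, read as CCF4 fluorescence ratio (ex 405, em 460/530 nm) after 2 h at RT. HEK293T UAS-bla cells, 2500/well, were stimulated with 9-cis-RA at 500 or 100 nM final alongside test compound for 18 h at 37 C.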
# [5] = S16 Schwann cell PMP22 intronic element beta-lactamase assay (AID 624044); conditions: S16 rat Schwann cells, PMP22 element beta-lactamase FRET, 24 h; measured here: 460 nm blue channel
# Summary of the method: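 Rat S16 Schwann cells with beta-Lac driven by a PMP22 intronic element, compound-treated 24 h at 37 °C. LiveBLAzer FRET B/G read: 460 nm normalized to potassium clavulanate vs DMSO; 535 nm FRET as viability; concentration-effect curves classified.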
structure (smiles),measurement,setting,value
O=C(O)c1ccc(S(=O)(=O)N(Cl)Cl)cc1,AC50,[1],"0.00562 µM [falling, full curve, poor fit]"
CC(COc1ccc(C(C)(C)C)cc1)OS(=O)OCCCl (stereo not given),AC50,[2],"25.1 µM [falling, full curve]"
same,max response,[3],15.6%
same,max response,[4],1.32%
Cc1c(C(=O)NCCO)[n+](=O)c2ccccc2n1[O-],AC50,[2],"0.0282 µM [falling, full curve, poor fit]"
same,AC50,[5],"12.6 µM [rising, single point]"
C=CC(=O)OCCOc1ccccc1,max response,[3],-10.2%
CC1CC(OC(=O)c2ccccc2O)CC(C)(C)C1 (stereo not given),max response,[3],-22%
CNc1ccc(O)cc1,AC50,[2],"70.8 µM [rising, single point]"
same,max response,[3],40%
same,max response,[4],38.1%
Brc1cc(Br)c(Oc2cc(Br)c(Br)cc2Br)cc1Br,AC50,[2],"50.1 µM [rising, single point]"
same,max response,[4],28.1%
CCCCCCCC(=O)OCC(COC(=O)CCCCCCC)OC(=O)CCCCCCC,AC50,[2],"50.1 µM [rising, single point]"
same,AC50,[5],"5.01 µM [falling, full curve, poor fit]"
CN(C)c1ccc(C(c2ccccc2)c2ccc(N(C)C)cc2)cc1,AC50,[1],"50.1 µM [falling, partial curve, poor fit]"
same,max response,[3],39.1%
same,max response,[4],-21.2%
C=C(C)C1CC=C(C)CC1 (stereo not given),AC50,[1],"251 µM [rising, full curve, poor fit]"
C[Si]1(C)O[Si](C)(C)O[Si](C)(C)O[Si](C)(C)O[Si](C)(C)O1,AC50,[1],"0.0562 µM [falling, full curve, poor fit]"

# A section of the results above:
structure (smiles),measurement,setting,value
CN(C)c1ccc(C(c2ccccc2)c2ccc(N(C)C)cc2)cc1,max response,[4],-21.2%
C=C(C)C1CC=C(C)CC1 (stereo not given),AC50,[1],"251 µM [rising, full curve, poor fit]"
